Results published in patent US7824691B2 (priority 2005, dated 2010).
Several values for one entry are separate records, joined by “and”; a condition that tells them apart may be missing. Equal values may be shown once. At least one peptide structure holds a part that was inferred or is arguable (an end, a ring closure or a residue). Marks after values point to notes of the source that are not given here. For some assays here: For at least one compound, name, drawing or mass did not settle the structure. Ends that are not written are not given here.

Columns and labels:
[1] = test system: antibiotic-resistant clinical isolates; details: cited from earlier work
[2] = test system: RAW264.7 cells; experiment: LTA-induced TNF-α production by RAW264.7 cells (ELISA); assay type: cell-based, murine; details: for release of TNF-α in the absence of LTA: at the concentrations used, no LTA, not shown
Description: (§1) Cytokine production by RAW 264.7 cells: The murine macrophage cell line RAW264.7 was obtained from American Type Culture Collection (ATCC) and maintained in RPMI supplemented with 10% fetal calf serum (FCS), 2 mM L-glutamine, 100 units/mL penicillin and 100 μg/mL streptomycin in a humidified 37° C. incubator. RAW264.7 cells were plated in 24-well dishes at 10^6 cells/well in the above medium and incubated at 37° C. in 5% CO2 overnight. RPMI was aspirated from cells grown overnight and replaced with fresh medium. […] Peptides were added simultaneously with LTA. After 24 hours incubation, the supernatants were removed and tested for TNF-α production by enzyme linked immunosorbent assay (ELISA; Euroclone Life Sciences, Milan, Italy) according to the manufacturer's specification. All samples were run in duplicate. The detection limit for TNF-α was <0.025 ng/mL.

[3] = test system: IL-6 plasma levels; experiment: Murine sepsis model 2, heat-killed S. aureus challenge, plasma IL-6; assay type: in vivo, BALB/c male mice; details: for IL-6 plasma levels: model 2a: drugs at 0 min after heat-killed cell challenge, FIG. 4A; for plasma IL-6 concentrations: model 2b: drugs 360 min after heat-killed bacterial challenge, FIG. 4B
Description: Heat-killed S. aureus were prepared by boiling for 10 min and sonicating a bacterial suspension for 1 min in phosphate buffered saline containing approximately 2.5×10^9 cells/mL.
(§2) Implantation of inoculum: All animals were anesthetized by an intramuscular injection of ketamine (30 mg/kg of body weight). Mice were injected intravenously (i.v.) via the tail vein with 0.2 mL of the above mentioned bacterial suspensions: (i) 2.0×10^6 CFU of S. aureus ATCC 25923 (model 1), or (ii) 5.0×10^8 heat-killed cells (model 2) on day 0 and monitored for 72 hours.
(§3) Antibiotic therapy. […] Each group included 20 mice. The animals were returned to individual cages and monitored for the subsequent 72 hours. The endpoints of the study were lethality rates (model 1), quantitative blood cultures (bacteremia, model 1), and TNF-α or IL-6 plasma levels (model 2).
Plasma TNF-α and IL-6 levels. To determine TNF-α and IL-6 in plasma (model 2), blood samples were collected from the tail vein after 0, 6, 12, 24 and 48 h post-injection. TNF-α levels were measured with a solid phase sandwich enzyme-linked immunosorbent assay (ELISA). The intensity of the color was measured in a MR 700 Microplate Reader (Dynatech Laboratories, Guernsey, United Kingdom) by reading the absorbance at 450 nm. […] All samples were performed in duplicate. The lower limit of sensitivity for TNF-α by this assay was 0.05 ng/mL. The plasma concentrations of IL-6 were also determined by ELISA, as described above. Quantification was performed on the basis of a standard curve. The detection limit was 12 pg/mL. The assays were performed in duplicate.
(§4) Statistical analysis: Lethality rates between groups were compared by use of Fisher's exact test. Data from quantitative blood cultures were presented as means±standard deviations (SDs) of the mean; statistical comparisons between groups were made by analysis of variance. Post hoc comparisons were performed by Bonferroni's test. Plasma IL-6 and TNF-α mean values were compared between groups by analysis of variance. Significance was accepted when the p value was <0.05.

[4] = test system: RAW264.7 cells; experiment: LTA-stimulated NO production by RAW264.7 cells (Griess reagent); assay type: cell-based, murine; details: for reduction of LTA-stimulated NO generation: 5 μg/mL LTA, 24 h; for release of NO in the absence of LTA: at the concentrations used, not shown
Description: as §1
Nitric oxide (NO) detection: RAW264.7 cells were cultured as described above. The amount of LTA-stimulated production of NO in the supernatant over 24 hours was estimated from the accumulation of the stable NO metabolite nitrite with Griess reagent (Molecular Probes, Eugene, Oreg.) according to the manufacturer's instructions.

[5] = test system: S. aureus ATCC 25923; experiment: Murine sepsis model 1, live S. aureus i.v. challenge (lethality, bacteremia); assay type: in vivo, BALB/c male mice; details: for Lethality (%) / Lethality (dead/total): monitored 72 h; for Qualitative Blood Culture (positive/total) / Quantitative Blood Culture (CFU/ml), mean ± S.D.: blood 24 h after challenge
Description: Animals: BALB/c male mice weighing 23 to 30 g were used for all the experiments. All animals were housed in individual cages under constant temperature (22° C.) and humidity with a 12 hour light/dark cycle and had access to food and water ad libitum throughout the study. The study was approved by the animal research ethics committee of the I.N.R.C.A.-I.R.R.C.S., Polytechnic University of Marche, Ancona, Italy.
Preparation of the inoculum: S. aureus ATCC 25923 were grown overnight at 37° C. in brain-heart infusion broth. When bacteria were in the log phase of growth the suspension was centrifuged at 1000× g for 15 min, the supernatant was discarded, and the bacteria were resuspended in sterile saline to achieve a concentration of approximately 1×10^7 CFU/mL.
as §2, §3
Evaluation of treatment: Blood samples for culture were obtained from the tail vein by aseptic percutaneous puncture 24 h after bacterial challenge. The animals that died before this time were not tested. To perform quantitative bacterial cultures, blood samples were serially diluted, a 0.1 mL volume of each dilution was spread on blood agar plates and cultured at 35° C. for 48 h, and colony forming units (CFU) were counted. The limit of detection was <10 CFU/mL.
as §4

[6] = test system: lethal intraperitoneal infections; details: acute peritonitis model, mice; cited from earlier work
[7] = model 1a: i.v. treatment immediately after challenge
[8] = model 1a: treatment immediately after challenge
[9] = model 1b: i.v. treatment 6 h (360 min) after challenge
[10] = model 1b: treatment 6 h after challenge

GGLRSLGRKILRAWKKYGPIIVPIIRI-NH2 [BMAP-28]
concentration killing antibiotic-resistant clinical isolates in vitro [1]: submicromolar concentrations | reduction of LTA-induced release of TNF-α ([2]; 2 μM BMAP-28, 5 μg/mL LTA, 24 h): 74.5±6% | inhibition of LTA-induced release of TNF-α ([2]; 4 μM BMAP-28, 5 μg/mL LTA, 24 h): nearly complete inhibition | release of TNF-α in the absence of LTA [2]: neither peptide caused release | IL-6 plasma levels [3]: marked decrease | plasma IL-6 concentrations [3]: constant decrease | reduction of LTA-stimulated NO generation ([4]; 2 μM BMAP-28): 76±9.8% | release of NO in the absence of LTA [4]: neither peptide caused release | Lethality (%) [5, 7]: 30% | Lethality (dead/total) [5, 7]: 6/20 | Qualitative Blood Culture (positive/total) [5, 8]: 6/20^df | Quantitative Blood Culture (CFU/ml), mean ± S.D. [5, 8]: 3.7±0.9×10^3 CFU/ml and 3.7 ± 0.9 × 10^3de CFU/ml | Lethality (%) [5, 9]: 30% | Lethality (dead/total) [5, 9]: 6/20 | Qualitative Blood Culture (positive/total) [5, 10]: 6/20^df | Quantitative Blood Culture (CFU/ml), mean ± S.D. [5, 10]: 5.7 ± 1.8 × 10^3de CFU/ml | protection from lethal intraperitoneal infections [6]: efficiently protects mice

YSPWTNF-NH2 [RIP, YSPWTNF-NH2]
reduction of LTA-induced release of TNF-α ([2]; 20 μM RIP, 5 μg/mL LTA, 24 h): 45.6±10% | release of TNF-α in the absence of LTA [2]: neither peptide caused release | IL-6 plasma levels [3]: marked decrease | plasma IL-6 concentrations [3]: constant decrease | reduction of LTA-stimulated NO generation ([4]; 20 μM RIP): 53.3±8.1% | release of NO in the absence of LTA [4]: neither peptide caused release | Lethality (%) [5, 7]: 70% | Lethality (dead/total) [5, 7]: 14/20 | Qualitative Blood Culture (positive/total) [5, 8]: 14/20^d | Quantitative Blood Culture (CFU/ml), mean ± S.D. [5, 8]: 4.0 ± 0.8 × 10^4d CFU/ml | Lethality (%) [5, 9]: 70% | Lethality (dead/total) [5, 9]: 15/20 | Qualitative Blood Culture (positive/total) [5, 10]: 15/20^d | Quantitative Blood Culture (CFU/ml), mean ± S.D. [5, 10]: 5.6 ± 1.2 × 10^4d CFU/ml

C[C@@H](O)[C@H]1C(=O)N2C(C(=O)O)=C(SCCN=CN)C[C@H]12 [imipenem, reference compound]
IL-6 plasma levels [3]: No substantial differences | plasma IL-6 concentrations [3]: constant increase | Lethality (dead/total) [5, 7]: 6/20 | Lethality (dead/total) [5, 9]: 7/20
